Reference: article doi:10.1101/2024.10.20.619318

Target: T1, GFP-Sec14L6 (human) (UniProt B5MCN3)
T1 sequence: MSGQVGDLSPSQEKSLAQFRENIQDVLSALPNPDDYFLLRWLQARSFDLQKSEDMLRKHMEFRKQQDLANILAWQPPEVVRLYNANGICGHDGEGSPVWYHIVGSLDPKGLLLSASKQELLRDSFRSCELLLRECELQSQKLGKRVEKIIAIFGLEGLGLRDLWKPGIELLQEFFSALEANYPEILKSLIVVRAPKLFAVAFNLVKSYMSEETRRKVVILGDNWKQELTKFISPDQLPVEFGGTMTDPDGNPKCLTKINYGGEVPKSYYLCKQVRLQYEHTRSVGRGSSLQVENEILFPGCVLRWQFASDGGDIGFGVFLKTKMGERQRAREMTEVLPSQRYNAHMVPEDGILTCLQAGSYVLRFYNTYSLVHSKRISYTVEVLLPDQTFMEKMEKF
Assay: affinity purification with mass spectrometry

## PGRMC1 (endogenous, HEK293) (from UniProt O00264-1 1-195)
  binding: binds

No constants are given. Whether binding was seen depends on the method and setting. Binding seen in cells or lysates may run through a third protein. A yes stands for co-enrichment or nearness to the bait. Other partners may have been found. Sequences can lack the tags named with a protein.
